Results: PMC7644748
Construct, isoform or probe ends are uncertain for at least one entry. At least one verdict was read from the data and is not stated in words by the source.

Target: human serum albumin (HSA) (Homo sapiens) (UniProt P02768)
Experiment: graphene oxide fluorescence quenching/recovery (aptamer released from GO by HSA)
Settings: reduced graphene oxide, LOD 0.05 ug/mL HSA, range 0.1-600 ug/mL (not a Kd); PBS (137 mM NaCl, 2.7 mM KCl, 10 mM Na2HPO4, 1.8 mM KH2PO4, pH 7.4), 25 C, 30 min; 15 uL of 5 mg/mL GO + 15 uL of 5 uM aptamer in 200 uL; commercial protein; label: 5'-Cy5; single-stranded DNA

“ATACCAGCTTATTCAATTCCCCCGGCTTTGGTTTAGAGGTAGTTGCTCATTACTTGTACGCTCCGGATGAGATAGTAAGTGCAATCT [H8 aptamer (Cy5-labeled)]”: binds.
